Test results published in article doi:10.1101/2024.01.10.574971.
These are yes or no findings as the source states them, for the method shown. Binding seen in cells or lysates may run through a third protein. Some results given as binding are weak or reduced against the parent protein; the word gives no strength.

Chains of the proteins cited; added tags and fusions are not shown.
UniProt Q16665: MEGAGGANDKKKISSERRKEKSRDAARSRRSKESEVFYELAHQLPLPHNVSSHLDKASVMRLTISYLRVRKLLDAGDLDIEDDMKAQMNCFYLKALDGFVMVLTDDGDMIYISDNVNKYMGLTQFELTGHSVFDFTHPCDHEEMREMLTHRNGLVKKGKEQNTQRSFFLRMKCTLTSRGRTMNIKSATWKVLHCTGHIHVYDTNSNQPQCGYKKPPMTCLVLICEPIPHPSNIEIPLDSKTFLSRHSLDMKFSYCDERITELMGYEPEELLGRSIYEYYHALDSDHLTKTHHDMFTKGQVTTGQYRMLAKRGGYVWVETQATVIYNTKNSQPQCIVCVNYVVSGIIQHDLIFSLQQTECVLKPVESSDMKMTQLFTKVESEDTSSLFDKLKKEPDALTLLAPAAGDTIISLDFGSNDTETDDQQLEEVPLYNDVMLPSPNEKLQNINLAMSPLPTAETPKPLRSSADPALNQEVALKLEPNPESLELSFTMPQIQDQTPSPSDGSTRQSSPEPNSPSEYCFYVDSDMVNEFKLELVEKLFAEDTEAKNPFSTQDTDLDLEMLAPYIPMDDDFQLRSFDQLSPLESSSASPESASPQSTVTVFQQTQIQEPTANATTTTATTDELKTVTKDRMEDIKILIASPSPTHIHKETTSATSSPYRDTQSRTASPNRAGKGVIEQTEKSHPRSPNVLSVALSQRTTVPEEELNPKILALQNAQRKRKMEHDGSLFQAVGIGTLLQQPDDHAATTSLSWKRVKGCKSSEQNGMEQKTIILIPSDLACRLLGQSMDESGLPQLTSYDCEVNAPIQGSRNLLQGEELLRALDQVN
UniProt Q99814: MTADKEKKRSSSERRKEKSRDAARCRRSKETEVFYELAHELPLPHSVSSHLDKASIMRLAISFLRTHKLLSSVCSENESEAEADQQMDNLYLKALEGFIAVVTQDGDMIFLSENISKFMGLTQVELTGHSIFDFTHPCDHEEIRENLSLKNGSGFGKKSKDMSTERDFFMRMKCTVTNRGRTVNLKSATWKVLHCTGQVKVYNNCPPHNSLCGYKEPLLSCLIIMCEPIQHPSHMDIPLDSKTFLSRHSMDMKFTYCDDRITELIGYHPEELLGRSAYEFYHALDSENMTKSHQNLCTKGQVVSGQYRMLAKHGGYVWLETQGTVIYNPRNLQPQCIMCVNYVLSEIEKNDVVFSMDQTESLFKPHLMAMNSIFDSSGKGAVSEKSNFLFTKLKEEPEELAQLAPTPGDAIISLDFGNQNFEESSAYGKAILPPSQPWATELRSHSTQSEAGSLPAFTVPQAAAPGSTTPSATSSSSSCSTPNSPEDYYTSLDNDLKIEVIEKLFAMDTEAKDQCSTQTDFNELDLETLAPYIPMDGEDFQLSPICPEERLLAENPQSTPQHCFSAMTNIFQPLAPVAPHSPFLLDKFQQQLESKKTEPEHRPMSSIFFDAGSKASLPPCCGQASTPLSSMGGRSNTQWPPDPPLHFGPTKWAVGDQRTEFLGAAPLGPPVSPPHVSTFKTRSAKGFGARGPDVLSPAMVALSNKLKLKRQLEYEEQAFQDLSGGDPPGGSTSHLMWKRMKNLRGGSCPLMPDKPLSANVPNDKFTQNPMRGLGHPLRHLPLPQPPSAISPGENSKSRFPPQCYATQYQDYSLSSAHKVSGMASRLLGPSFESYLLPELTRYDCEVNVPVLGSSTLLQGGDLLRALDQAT

Biological target: T1, USP43 (endogenous) (human (endogenous in HeLa)) (UniProt Q70EL4)
T1 sequence: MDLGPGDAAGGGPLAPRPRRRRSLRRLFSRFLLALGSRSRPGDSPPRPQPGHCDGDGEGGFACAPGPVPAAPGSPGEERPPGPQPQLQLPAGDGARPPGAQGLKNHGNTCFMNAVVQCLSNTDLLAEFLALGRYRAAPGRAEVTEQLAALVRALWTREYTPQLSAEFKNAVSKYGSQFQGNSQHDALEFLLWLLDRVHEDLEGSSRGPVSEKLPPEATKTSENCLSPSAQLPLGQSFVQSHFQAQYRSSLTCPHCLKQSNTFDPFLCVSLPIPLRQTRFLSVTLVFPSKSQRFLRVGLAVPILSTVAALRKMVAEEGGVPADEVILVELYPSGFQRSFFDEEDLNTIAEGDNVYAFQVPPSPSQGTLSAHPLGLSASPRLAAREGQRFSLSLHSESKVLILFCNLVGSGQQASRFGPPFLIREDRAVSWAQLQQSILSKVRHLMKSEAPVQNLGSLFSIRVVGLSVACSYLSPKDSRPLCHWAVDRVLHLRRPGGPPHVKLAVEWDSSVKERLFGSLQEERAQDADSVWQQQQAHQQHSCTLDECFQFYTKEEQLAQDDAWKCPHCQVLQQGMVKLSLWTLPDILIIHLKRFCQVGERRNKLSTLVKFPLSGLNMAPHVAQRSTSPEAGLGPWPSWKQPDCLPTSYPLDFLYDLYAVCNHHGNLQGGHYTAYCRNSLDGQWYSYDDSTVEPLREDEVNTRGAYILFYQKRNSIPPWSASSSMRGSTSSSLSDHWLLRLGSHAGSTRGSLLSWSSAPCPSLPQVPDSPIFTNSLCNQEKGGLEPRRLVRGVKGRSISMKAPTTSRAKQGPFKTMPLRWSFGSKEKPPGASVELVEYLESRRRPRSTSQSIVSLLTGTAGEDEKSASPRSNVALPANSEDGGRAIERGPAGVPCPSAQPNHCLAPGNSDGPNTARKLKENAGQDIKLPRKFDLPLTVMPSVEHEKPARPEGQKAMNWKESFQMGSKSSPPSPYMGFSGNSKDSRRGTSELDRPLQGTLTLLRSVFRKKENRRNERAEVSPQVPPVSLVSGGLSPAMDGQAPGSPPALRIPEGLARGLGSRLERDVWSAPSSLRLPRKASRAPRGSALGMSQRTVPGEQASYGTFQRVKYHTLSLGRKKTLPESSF
Test: co-IP

Substance | binding
HIF-1α (endogenous) (from UniProt Q16665 1-826) | binds
HIF-2α (endogenous) (from UniProt Q99814 1-870) | no binding
